From patent US20130022605A1
No constants are given. Whether binding was seen depends on the method and setting. Some results given as binding are weak or reduced against the parent protein; the word gives no strength.

Protein sequences, listed by entry. Tags and fused reporters are not part of them. Lines headed by an entry give the natural chain unless they say otherwise; changes in a name come on top.
UniProt P19438: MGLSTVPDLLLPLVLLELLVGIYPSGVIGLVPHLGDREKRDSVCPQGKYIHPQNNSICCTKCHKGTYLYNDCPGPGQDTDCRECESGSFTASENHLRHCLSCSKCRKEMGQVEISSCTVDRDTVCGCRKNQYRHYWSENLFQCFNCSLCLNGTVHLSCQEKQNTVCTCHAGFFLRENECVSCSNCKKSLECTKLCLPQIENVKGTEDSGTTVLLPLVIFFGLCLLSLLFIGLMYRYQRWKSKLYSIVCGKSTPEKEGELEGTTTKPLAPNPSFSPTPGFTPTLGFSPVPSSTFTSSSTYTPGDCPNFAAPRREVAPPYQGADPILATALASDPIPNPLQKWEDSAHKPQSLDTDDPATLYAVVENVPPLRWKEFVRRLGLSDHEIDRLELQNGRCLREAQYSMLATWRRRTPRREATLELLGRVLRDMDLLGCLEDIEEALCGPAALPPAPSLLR

Molecular target: human TNFR1 (human p55 TNF receptor) (human) (UniProt P19438)
Test: SPR on biotinylated TNFR1, competition with chimeric TNFR1

| Binder | binding |
| --- | --- |
| TAR2h-154-10 (protein) EVQLLESGGGMVQPGGSLRLSCAASGFTFEHEGMVWVRQAPGKGLEWVSHIGEDGQSTYYADSVKGRFTISRDNSKNTLYLQMNSLRAEDTAVYYCANIPKAGPSFDYWGQGTLVTVSS | binds |
| TAR2h-185-25 (protein) EVQLLESGGGLVQPGGSLRLSCAASGFTFARYNMGWVRQAPGKGLEWVSLIDPSGGHTYYADSVKGRFTISRNNSKNTLYLQMNSLRAEDTAVYYCGKPVFSDWPAVEFDYWGQGTVVTVSS | binds |
